# Experimental data from the supplement of paper PMC8728848.
# This is one part of the list.
# Experiments:
# Assay in all cases: glycan array binding signal (z-score within array); higher = stronger binding
# Details in all cases: glycan notation: IUPAC condensed, linker removed
# [1] = target: Fuc(a1-2)Gal
# Procedure, shortened: (§1)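 Negative Z-scores can be read as non-binding. The Z-score is calculated within each array and then averaged across arrays of one protein sequence at different concentrations or buffers and across linkers. Arrays, 3228 in all, were curated from the Consortium for Functional Glycomics database and kept only where the protein sequence was available.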
# [2] = target: Fuc(a1-2)Gal(b1-3)GalNAc
# Procedure, shortened: as §1
# [3] = target: Fuc(a1-2)Gal(b1-3)GalNAc(a1-3)[Fuc(a1-2)]Gal(b1-4)Glc
# Procedure, shortened: as §1
# [4] = target: Fuc(a1-2)Gal(b1-3)GalNAc(a1-3)[Fuc(a1-2)]Gal(b1-4)GlcNAc
# Procedure, shortened: as §1
# [5] = target: Fuc(a1-2)Gal(b1-3)GalNAc(b1-3)Gal
# Procedure, shortened: as §1
# [6] = target: Fuc(a1-2)Gal(b1-3)GalNAc(b1-3)Gal(a1-4)Gal(b1-4)Glc
# Procedure, shortened: as §1
# [7] = target: Fuc(a1-2)Gal(b1-3)GalNAc(b1-4)[Neu5Ac(a2-3)]Gal(b1-4)Glc
# Procedure, shortened: as §1
# [8] = target: Fuc(a1-2)Gal(b1-3)GlcNAc
# Procedure, shortened: as §1
# [9] = target: Fuc(a1-2)Gal(b1-3)GlcNAc(b1-2)Man(a1-3)[Fuc(a1-2)Gal(b1-3)GlcNAc(b1-2)Man(a1-6)]Man(b1-4)GlcNAc(b1-4)GlcNAc
# Procedure, shortened: as §1
# [10] = target: Fuc(a1-2)Gal(b1-3)GlcNAc(b1-2)Man(a1-3)[Fuc(a1-2)Gal(b1-3)GlcNAc(b1-2)Man(a1-6)]Man(b1-4)GlcNAc(b1-4)[Fuc(a1-6)]GlcNAc
# Procedure, shortened: as §1
# [11] = target: Fuc(a1-2)Gal(b1-3)GlcNAc(b1-3)Gal(b1-4)Glc
# Procedure, shortened: as §1
# [12] = target: Fuc(a1-2)Gal(b1-3)GlcNAc(b1-3)GalNAc
# Procedure, shortened: as §1
# [13] = target: Fuc(a1-2)Gal(b1-3)GlcNAc(b1-3)[Fuc(a1-2)Gal(b1-3)GlcNAc(b1-6)]GalNAc
# Procedure, shortened: as §1
# [14] = target: Fuc(a1-2)Gal(b1-3)GlcNAc(b1-3)[Gal(b1-4)GlcNAc(b1-6)]Gal(b1-4)Glc
# Procedure, shortened: as §1
# [15] = target: Fuc(a1-2)Gal(b1-3)GlcNAc(b1-3)[Neu5Ac(a2-6)Gal(b1-4)GlcNAc(b1-6)]Gal(b1-4)Glc
# Procedure, shortened: as §1
# [16] = target: Fuc(a1-2)Gal(b1-3)GlcNAc6S
# Procedure, shortened: as §1
# [17] = target: Fuc(a1-2)Gal(b1-3)[Fuc(a1-4)]GlcNAc
# Procedure, shortened: as §1
# [18] = target: Fuc(a1-2)Gal(b1-3)[Fuc(a1-4)]GlcNAc(b1-2)Man(a1-3)[Fuc(a1-2)Gal(b1-3)[Fuc(a1-4)]GlcNAc(b1-2)Man(a1-3)]Man(b1-4)GlcNAc(b1-4)GlcNAc
# Procedure, shortened: as §1
# [19] = target: Fuc(a1-2)Gal(b1-3)[Fuc(a1-4)]GlcNAc(b1-2)Man(a1-3)[Fuc(a1-2)Gal(b1-3)[Fuc(a1-4)]GlcNAc(b1-2)Man(a1-6)]Man(b1-4)GlcNAc(b1-4)[Fuc(a1-6)]GlcNAc(b1-4)[Fuc(a1-6)]GlcNAc
# Procedure, shortened: as §1
# [20] = target: Fuc(a1-2)Gal(b1-3)[Fuc(a1-4)]GlcNAc(b1-3)[Fuc(a1-3)[Gal(b1-4)]GlcNAc(b1-6)]Gal(b1-4)Glc
# Procedure, shortened: as §1
# [21] = target: Fuc(a1-2)Gal(b1-3)[Fuc(a1-4)]GlcNAc(b1-3)[Gal(b1-4)GlcNAc(b1-6)]Gal(b1-4)Glc
# Procedure, shortened: as §1
# [22] = target: Fuc(a1-2)Gal(b1-4)Fuc(a1-3)]GlcNAc(b1-2)Man(a1-3)[Fuc(a1-2)Gal(b1-4)[Fuc(a1-3)]GlcNAc(b1-2)Man(a1-6)]Man(b1-4)GlcNAc(b1-4)GlcNAc
# Procedure, shortened: as §1
# [23] = target: Fuc(a1-2)Gal(b1-4)Glc
# Procedure, shortened: as §1
# [24] = target: Fuc(a1-2)Gal(b1-4)Glc6S
# Procedure, shortened: as §1
# [25] = target: Fuc(a1-2)Gal(b1-4)GlcNAc
# Procedure, shortened: as §1
# [26] = target: Fuc(a1-2)Gal(b1-4)GlcNAc(b1-2)Man
# Procedure, shortened: as §1
# [27] = target: Fuc(a1-2)Gal(b1-4)GlcNAc(b1-2)Man(a1-3)[Fuc(a1-2)Gal(b1-4)GlcNAc(b1-2)Man(a1-6)]Man(b1-4)GlcNAc(b1-4)GlcNAc
# Procedure, shortened: as §1
# [28] = target: Fuc(a1-2)Gal(b1-4)GlcNAc(b1-2)Man(a1-3)[Fuc(a1-2)Gal(b1-4)GlcNAc(b1-2)Man(a1-6)]Man(b1-4)GlcNAc(b1-4)[Fuc(a1-6)]GlcNAc
# Procedure, shortened: as §1
# [29] = target: Fuc(a1-2)Gal(b1-4)GlcNAc(b1-2)[Fuc(a1-2)Gal(b1-4)GlcNAc(b1-4)]Man(a1-3)[Fuc(a1-2)Gal(b1-4)GlcNAc(b1-2)Man(a1-6)]Man(b1-4)GlcNAc(b1-4)GlcNAc
# Procedure, shortened: as §1
# [30] = target: Fuc(a1-2)Gal(b1-4)GlcNAc(b1-3)Gal(b1-4)GlcNAc
# Procedure, shortened: as §1
# [31] = target: Fuc(a1-2)Gal(b1-4)GlcNAc(b1-3)Gal(b1-4)GlcNAc(b1-2)Man(a1-3)[Fuc(a1-2)Gal(b1-4)GlcNAc(b1-3)Gal(b1-4)GlcNAc(b1-2)Man(a1-6)]Man(b1-4)GlcNAc(b1-4)GlcNAc
# Procedure, shortened: as §1
# [32] = target: Fuc(a1-2)Gal(b1-4)GlcNAc(b1-3)Gal(b1-4)GlcNAc(b1-3)Gal(b1-4)GlcNAc
# Procedure, shortened: as §1
# [33] = target: Fuc(a1-2)Gal(b1-4)GlcNAc(b1-3)GalNAc
# Procedure, shortened: as §1
# [34] = target: Fuc(a1-2)Gal(b1-4)GlcNAc(b1-3)[Fuc(a1-2)Gal(b1-4)GlcNAc(b1-6)]GalNAc
# Procedure, shortened: as §1
# [35] = target: Fuc(a1-2)Gal(b1-4)GlcNAc(b1-3)[Fuc(a1-3)[Gal(b1-4)]GlcNAc(b1-6)]Gal(b1-4)Glc
# Procedure, shortened: as §1
# [36] = target: Fuc(a1-2)Gal(b1-4)GlcNAc(b1-6)GalNAc
# Procedure, shortened: as §1
# [37] = target: Fuc(a1-2)Gal(b1-4)GlcNAc6S
# Procedure, shortened: as §1
# [38] = target: Fuc(a1-2)Gal(b1-4)[Fuc(a1-3)]GlcNAc
# Procedure, shortened: as §1
# [39] = target: Fuc(a1-2)Gal(b1-4)[Fuc(a1-3)]GlcNAc(b1-2)Man(a1-3)[Fuc(a1-2)Gal(b1-4)[Fuc(a1-3)]GlcNAc(b1-2)Man(a1-6)]Man(b1-4)GlcNAc(b1-4)[Fuc(a1-6)]GlcNAc
# Procedure, shortened: as §1
# [40] = target: Fuc(a1-2)Gal(b1-4)[Fuc(a1-3)]GlcNAc(b1-2)[Fuc(a1-2)Gal(b1-4)[Fuc(a1-3)]GlcNAc(b1-4)]Man(a1-3)[Fuc(a1-2)Gal(b1-4)[Fuc(a1-3)]GlcNAc(b1-2)Man(a1-6)]Man(b1-4)GlcNAc(b1-4)GlcNAc
# Procedure, shortened: as §1
# [41] = target: Fuc(a1-2)Gal(b1-4)[Fuc(a1-3)]GlcNAc(b1-3)Gal(b1-4)[Fuc(a1-3)]GlcNAc
# Procedure, shortened: as §1
# [42] = target: Fuc(a1-2)Gal(b1-4)[Fuc(a1-3)]GlcNAc(b1-3)Gal(b1-4)[Fuc(a1-3)]GlcNAc(b1-3)Gal(b1-4)[Fuc(a1-3)]GlcNAc
# Procedure, shortened: as §1
# [43] = target: Fuc(a1-2)Gal(b1-4)[Fuc(a1-3)]GlcNAc(b1-3)GalNAc
# Procedure, shortened: as §1
# [44] = target: Fuc(a1-2)Gal(b1-4)[Fuc(a1-3)]GlcNAc(b1-3)[Neu5Ac(a2-6)Gal(b1-4)GlcNAc(b1-6)]Gal(b1-4)Glc
# Procedure, shortened: as §1
# [45] = target: Fuc(a1-2)Gal3S(b1-4)GlcNAc
# Procedure, shortened: as §1
binder,measurement,setting,value
"XTP3-B-MRH1 (Homo sapiens), Q96DZ1 (protein) LLEPLFKQSSCSYRIESYWTYEVCHGKHIRQYHEEKETGQKINIHEYYLGNMLAKNLLFEKEREAEEKEKSNEIPTKNIEGQMTPYYPVGMGNGTPCSLKQNRPRSSTVMYICHPESKHEILSVAEVTTCEYEVVILTPLLCSHPKYRFRA",glycan array binding signal (z-score),[1],0.999
same,glycan array binding signal (z-score),[2],0.653
same,glycan array binding signal (z-score),[3],-0.222
same,glycan array binding signal (z-score),[4],-0.51
same,glycan array binding signal (z-score),[5],0.147
same,glycan array binding signal (z-score),[6],-0.962
same,glycan array binding signal (z-score),[7],0.229
same,glycan array binding signal (z-score),[8],-0.8
same,glycan array binding signal (z-score),[9],1.96
same,glycan array binding signal (z-score),[10],-1.59
same,glycan array binding signal (z-score),[11],-0.255
same,glycan array binding signal (z-score),[12],-0.536
same,glycan array binding signal (z-score),[13],-1.56
same,glycan array binding signal (z-score),[14],0.199
same,glycan array binding signal (z-score),[15],-1.03
same,glycan array binding signal (z-score),[16],0.065
same,glycan array binding signal (z-score),[17],-0.488
same,glycan array binding signal (z-score),[18],-0.463
same,glycan array binding signal (z-score),[19],0.479
same,glycan array binding signal (z-score),[20],-0.461
same,glycan array binding signal (z-score),[21],0.735
same,glycan array binding signal (z-score),[22],3.43
same,glycan array binding signal (z-score),[23],-1.56
same,glycan array binding signal (z-score),[24],0.43
same,glycan array binding signal (z-score),[25],0.13
same,glycan array binding signal (z-score),[26],-0.171
same,glycan array binding signal (z-score),[27],1.23
same,glycan array binding signal (z-score),[28],0.235
same,glycan array binding signal (z-score),[29],-0.21
same,glycan array binding signal (z-score),[30],-0.514
same,glycan array binding signal (z-score),[31],1.59
same,glycan array binding signal (z-score),[32],0.181
same,glycan array binding signal (z-score),[33],-0.58
same,glycan array binding signal (z-score),[34],-0.248
same,glycan array binding signal (z-score),[35],-0.151
same,glycan array binding signal (z-score),[36],-0.52
same,glycan array binding signal (z-score),[37],-1.16
same,glycan array binding signal (z-score),[38],0.698
same,glycan array binding signal (z-score),[39],0.643
same,glycan array binding signal (z-score),[40],-0.119
same,glycan array binding signal (z-score),[41],0.249
same,glycan array binding signal (z-score),[42],0.209
same,glycan array binding signal (z-score),[43],-0.352
same,glycan array binding signal (z-score),[44],0.595
same,glycan array binding signal (z-score),[45],0.083

# Reprinted at random: 2 entries already listed, in no set order.
binder,measurement,setting,value
"XTP3-B-MRH1 (Homo sapiens), Q96DZ1 (protein) LLEPLFKQSSCSYRIESYWTYEVCHGKHIRQYHEEKETGQKINIHEYYLGNMLAKNLLFEKEREAEEKEKSNEIPTKNIEGQMTPYYPVGMGNGTPCSLKQNRPRSSTVMYICHPESKHEILSVAEVTTCEYEVVILTPLLCSHPKYRFRA",glycan array binding signal (z-score),[45],0.083
same,glycan array binding signal (z-score),[16],0.065
